Where a chain is given by its changes, count along the chain named. Names may count otherwise. No constants are given. Whether binding was seen depends on the method and setting. In cells and extracts the contact can be indirect. Binding calls can cover weak binding; strength is not graded here. For part of these data: Where a sequence is shown, tags or fusion partners need not be part of it. One block for each binder: values may come before it.
Tests used:
[1] = molecular target: β’2-COP (BiFC fusion) (Arabidopsis thaliana); assay: split reporter
[2] = molecular target: ε1-COP (BiFC fusion) (Arabidopsis thaliana); assay: split reporter
[3] = molecular target: GCS:Venus-N (Arabidopsis thaliana); assay: split reporter
[4] = molecular target: Myc:GCS (Arabidopsis thaliana); assay: co-IP

B2: GFP:α1-COP (protein, UniProt Q94A40 1-1216)
chain: MLTKFETKSNRVKGLSFHPKRPWILASLHSGVIQLWDYRMGTLIDRFDEHEGPVRGVHFHNSQPLFVSGGDDYKIKVWNYKNHRCLFTLLGHLDYIRTVQFHHEYPWIVSASDDQTIRIWNWQSRTCVSVLTGHNHYVMCASFHPKEDLVVSASLDQTVRVWDIGALRKKTVSPADDIMRLTQMNSDLFGGVDAIVKYVLEGHDRGVNWAAFHPTLPLIVSGADDRQVKLWRMNETKAWEVDTLRGHMNNVSSVMFHAKQDIIVSNSEDKSIRVWDATKRTGLQTFRREHDRFWILAVHPEMNLLAAGHDSGMIVFKLERERPAFALSGDSLFYAKDRFLRYYEYSTQRDSQVIPIRRPGTPSLNQSPRTLSYSPTENAVLICSDLDGGSYELYIIPKDSVGRSDVVQDAKRGTGGSAVFIARNRFAVLEKSTSQVLVKNLKNEVVKKSPLPIPTDAIFYAGTGNLLCRSEDKVVIFDLQQRLVLGELQTPFVRYVVWSSDMESVALLSKHTIIIASKKLVLQCTLHETIRVKSGAWDDNGVFIYTTLNHIKYCLPNGDSGIIRTLDVPIYITKVSGNTIFCLDRDGKNKAITINATEYIFKLSLLRKRYDHVMSMIKNSQLCGQAMIAYLQQKGFPEVALHFVEDERIRFNLALESGNISVAVASATQINEKDHWYRLGVEALRQGNSGIVEFAYQQTKNFERLSFLYLITGNLDKLSKLMKIAEVKNNVMGQFHNALYLGDVKERVKILENAGHLPLAYITASVHGLNDIAERLATELGDNVPSLPEGKTPSLLMPPTPIMCGGDWPLLRVMKGIFEGGLESADRGGTVDEEDVEGDWGEELDINVDGMENRDIEDILAAAEAGEEENDEEGGWGLEDLVLPPELDTPKASANARSSVFVTPPQGMPVSQSWSQKSSLAAEQAAAGSFDTAMRLLHRQLGIKNFTPLKSMFLDLFNGSHSYLRAFSSCPVVPLAIERGWSESSSPNVRSPPALVYDFSQLDEKLKSGYKATTTGKFTEALRLFLSILHTIPLVVVETRREVDEVKELIVIVKEYVLGLQMELKRREMKDDPVRQQELAAYFTHCNLQTPHLRLALLSAMGVCYKAKNLATASNFARRLLETSPVDSQAKMARQVVQAAERNMTDETKLNYDFRNPFVVCGSTYVPIYRGQKDVSCPYCTARFVPNQEGNICTVCDLAVIGADASGLLCSPSQVR
binding [4]: binds

B4: GFP:α1-COP^G486D (protein, UniProt Q94A40 1-1216)
chain: B2 chain with G486D
binding [4]: no binding

Results, then the binder that gave them:

binding [1]: binds | binding [2]: binds | binding [3]: binds
B1: α1-COP:Venus-C (protein, UniProt Q94A40 1-1216)
chain: B2 chain

binding [3]: no binding
B3: α1-COP^G486D:cVenus (protein, UniProt Q94A40 1-1216)
chain: B2 chain with G486D
